The values that follow come from patent US20240368264A1.

Sequences of proteins named here, by UniProt entry; tags and fusion partners are left off. Residues count along the entry.
UniProt Q969D9, residues 29-159: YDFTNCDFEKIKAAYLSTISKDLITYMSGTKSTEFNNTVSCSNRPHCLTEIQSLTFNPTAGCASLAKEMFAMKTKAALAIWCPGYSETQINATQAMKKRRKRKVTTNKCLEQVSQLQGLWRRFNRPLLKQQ

Results are given in words; binding and its absence hold for the method and conditions named. Some binding calls cover weakened binding; strength is not graded here.

This experiment has as its target TSLP-Biotin protein (UniProt Q969D9). Description: flow cytometry blocking assay: antibody diluted 2-fold from 20 ug/mL with TSLP-Biotin on HEK293F/TSLPR transient cells, SA-PE, MFI; blocked partner: TSLPR on the cells.

B1: Nb7-54 (VHH)
VHH: QVQLQESGGGSVQAGETLRLSCTASGFTFDDSDMGWYRQAPGNECELVSIISSDGMTYYADSVKGRFTISQDNAKNTVYLQMNSLKPEDTAVYYCAATKYSSDYDVAEDWRRGVCGDMDYWGKGTQVTVSS
With B1, the binding entry is “binds”.

B2: Nb10-63 (VHH)
VHH: QVQLQESGGGSVQAGGSLRLSCTASGFTLDDSDMGWYRQAPGDECELVSTISSLGGTYYADSVKGRFTISHDNAKNTVYLQMNSLKPHDTAVYYCAPGTDRYSDCPNEYSVWGQGTQVTVSS
Take B2: the binding entry is reported as “binds”.

B3: Nb5-31 (VHH)
VHH: QVQLQESGGGSVQAGGSLRLSCTASGFTSGGSDMGWYRQAPGNECDLVSYISSDGSTYYADSVKGRFTISQDNAKNTVYLQMNSLKPEDTAVYYCAATDYGLGPPPSSTGQCYGMDYWGKGTQVTVSS
B3: the binding entry was “binds”.
